# Measured values taken from PubChem BioAssay AID2685 (National Center for Advancing Translational Sciences (NCATS), 2010).
# This is one part of the list. Further columns of the screen follow, without active or inactive calls. The list favours compounds with an active or inconclusive main result. Potencies come from curve fits of mixed quality, noted in brackets.
# Experiment: qHTS Assay for Lipid Storage Modulators in Drosophila S3 Cells;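 for cell number change: cells counted by Cell Tracker Red CMTPX staining in the red channel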
# Settings: BODIPY lipid droplet fluorescence, 18-24 h; for cell number change: measured here: cell count max response, cells fed with added oleic acid
# Method in brief: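 Laser-scanning cytometry quantifies lipid droplet accumulation (500–530 nm total intensity; droplet/cell object ratio) in oleic acid-fed (400 uM added) Drosophila S3 cells treated with a concentration series. 20 uM Triacsin C defined 100% inhibition.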
# [1] = measured here: lipid fluorescence (Fed channel) AC50, cells fed with added oleic acid
# [2] = measured here: cell number channel AC50, cells fed with added oleic acid
SMILES,cell number change,AC50 [1],AC50 [2]
CC(C)(C)NC(=O)C1CCN(c2ccc(S(=O)(=O)N3CCOCC3)cc2Cl)CC1,-4.99%,–,–
c1ccc(CN2CCN(c3ncnc4c3[nH]c3ccccc34)CC2)cc1,-13.7%,"9200 nM [rising, partial curve, poor fit]",–
COc1cccc(OCCOCC(O)CN2CCN(Cc3ccc(Cl)cc3)CC2)c1 (stereo not given),2.98%,–,–
CCCN1CCC(NC(=O)Nc2ccccc2C(=O)OC)CC1,-40.5%,–,"206 nM [falling, full curve]"
O=C(CCc1c[nH]c2ccccc12)N/N=C/c1ccc2c(c1)OCO2,32.9%,–,"731 nM [falling, single point]"
COC(=O)CNC(=O)C1CCN(C(=O)OCc2ccccc2)CC1,-30.1%,–,"4110 nM [falling, full curve]"
CC(=O)Nc1ccc(NC2(C)C(=O)c3ccccc3C2=O)cc1,-0.286%,–,–
CSc1ccccc1C(=O)NCC1CCCO1 (stereo not given),-68.6%,–,"14600 nM [falling, partial curve, poor fit]"
COCCn1c(-c2cc(OC)c(OC)c(OC)c2)nc2nc3ccccc3nc21,-3.24%,–,–
CCn1nccc1C(=O)Nc1ccc(Cl)cc1Cl,–,–,"2590 nM [rising, partial curve]"
CC(C)(C)NC(=O)c1ccccc1NC(=O)C1CCCO1 (stereo not given),-5.1%,–,"651 nM [rising, partial curve, poor fit]"
COc1cccc(CNc2cccc3cccnc23)c1O,–,–,"116 nM [rising, full curve, poor fit]"
CCOc1ccc(CCNC(=O)CCc2nnc3ccc(N4CCCCC4)nn23)cc1OCC,-40.1%,"3660 nM [falling, full curve]","10300 nM [falling, partial curve, poor fit]"
O=C(c1ccc(-n2cccn2)cc1)N1CCc2ccccc2C1,-13.4%,"29100 nM [falling, single point]",–
N#CC1(NC(=O)COC(=O)c2nc(Cl)c(Cl)c(N)c2Cl)CCCCC1,–,"2060 nM [falling, partial curve, poor fit]","3660 nM [falling, partial curve]"
C=CCN(CC=C)S(=O)(=O)c1ccc(NC(=S)NC(=O)c2ccc(-c3ccccc3)cc2)cc1,4.13%,"6510 nM [rising, partial curve, poor fit]",–
CCN1CCN(c2cc(=O)n(-c3cc(Cl)ccc3C)c(=O)[nH]2)CC1,–,–,"651 nM [rising, single point]"
OC(CN1CCNCC1)Cn1ccc2ccccc21 (stereo not given),-6.65%,–,–
COc1cccc(-c2nc(C=O)cs2)c1,-11%,–,–
O=C1c2[nH]nc(-c3ccccc3O)c2C(c2ccccc2F)N1Cc1ccco1 (stereo not given),-23.8%,–,–
CCc1cc2c(=O)c(-c3cscn3)coc2c(CN(C)C)c1O,–,"651 nM [falling, single point]",–

# Some of these compounds in order of count of non-hydrogen atoms, ascending:
SMILES,cell number change,AC50 [1],AC50 [2]
CC(C)(C)NC(=O)c1ccccc1NC(=O)C1CCCO1 (stereo not given),-5.1%,–,"651 nM [rising, partial curve, poor fit]"
CCCN1CCC(NC(=O)Nc2ccccc2C(=O)OC)CC1,-40.5%,–,"206 nM [falling, full curve]"
COC(=O)CNC(=O)C1CCN(C(=O)OCc2ccccc2)CC1,-30.1%,–,"4110 nM [falling, full curve]"

# More results

SMILES,cell number change,AC50 [1],AC50 [2]
O=C(/C=C/Nc1ccc(F)cc1Br)c1ccccc1,15.1%,"6510 nM [rising, single point]",–
CCC(=O)Nc1ccc(C(=O)OCc2ccc(Cl)c(Cl)c2)cc1,-1.29%,"517 nM [rising, full curve, poor fit]",–
Brc1ccc(-c2nnc(-c3cccc(Br)c3)o2)cc1,-26.2%,–,"4.61 nM [falling, full curve, poor fit]"
CCCN1CCN(CC(=O)Nc2nncs2)CC1,11.6%,–,–
COc1ccc(-c2cc(C(F)F)n3ncc(C(=O)Nc4cc(C)on4)c3n2)cc1,2.95%,–,–
COc1cccc(/C=N/NC(=O)c2cc3c(OC)ccc(OC)c3[nH]2)c1O,-26%,"7310 nM [falling, partial curve, poor fit]",–
CN(C)c1ccc(N=Nc2ccccc2C(=O)OCC(=O)NCC2CCCCC2)cc1,-92.3%,"18400 nM [falling, single point]","25900 nM [falling, single point]"
CCC(=O)NCC(c1ccco1)N1CCN(c2ccc(OC)cc2)CC1 (stereo not given),-14.5%,"4.61 nM [falling, full curve, poor fit]","5.17 nM [falling, full curve, poor fit]"
O=C(CN(Cc1ccco1)C(=O)CNS(=O)(=O)c1ccc(F)cc1)NCc1ccco1,-2.56%,"116 nM [rising, single point]",–
Cc1ccccc1NC(=O)CC1SC(=NC2CCCCC2)NC1=O (stereo not given),9.39%,"259 nM [rising, full curve]",–
CC(=O)c1c(C)[nH]c(C(=O)OCC(=O)NCCc2ccc(Cl)cc2)c1C,139%,"2910 nM [rising, partial curve]","1640 nM [rising, partial curve]"
CC(C)(C)c1ccc(-c2nnc(SCCN3C(=O)c4ccccc4C3=O)o2)cc1,–,"517 nM [falling, single point]",–
COc1cc(OC)c(C(=O)NCc2ccc3c(c2)OCO3)cc1OC,0.702%,"29100 nM [rising, single point]",–
CC(=O)c1cccc(CN2CCC(n3nccc3NC(=O)CCc3ccccc3)CC2)c1,16.5%,–,–
CN(C)c1ccc(Nc2nc(N)c([N+](=O)[O-])c(N3CCOCC3)n2)cc1,–,"2310 nM [rising, single point]",–
O=C(Nc1ccc(N2CCOCC2)cc1)c1cnccn1,14.6%,"16400 nM [falling, single point]",–
Cc1cccc(Cn2c(N3CCc4ccccc4C3)nc3c2c(=O)[nH]c(=O)n3C)c1,1.32%,"5800 nM [rising, partial curve]",–
N#Cc1ccc(NC(=O)C2=COCCO2)cc1,-4.17%,"366 nM [falling, full curve, poor fit]",–
COc1ccc(-n2c(CN3CCC(C(N)=O)CC3)nc3ccc([N+](=O)[O-])cc3c2=O)c(OC)c1,18.8%,"20600 nM [rising, single point]",–
O=C(OCC(=O)N1CCCC1)c1c(Cl)ccc(Cl)c1Cl,–,"4110 nM [falling, full curve]",–
CCOc1ccc(C(C)NC(=O)c2cccnc2OCC)cc1OCC (stereo not given),39.2%,"29100 nM [rising, single point]","517 nM [rising, full curve, poor fit]"

SMILES,cell number change,AC50 [1],AC50 [2]
Cc1ccc(N/N=C(\C#N)C(=N)N2CCOCC2)cc1,-7.52%,–,–
COC(=O)c1ccc(OC)c(Cn2c(=O)n(C)c(=O)c3ccccc32)c1,7.62%,–,–
CCCOc1ccccc1N/C(=N/c1nc(C)cc(C)n1)NC(=O)Nc1ccc(Cl)cc1,-30.3%,"3260 nM [falling, partial curve]","3260 nM [falling, full curve, poor fit]"
CCCCN(C(=O)c1cccc2c(=O)c(C)c(-c3ccccc3)oc12)c1ccccc1,35.3%,"23100 nM [falling, partial curve, poor fit]","103 nM [rising, full curve, poor fit]"
CCCn1c(SCC(=O)NNC(=O)c2ccccc2)nnc1-c1cccnc1,1.35%,"9200 nM [rising, partial curve]",–
CC1CC1C(=O)OCC(=O)NCc1ccc(Cl)cc1 (stereo not given),-16.2%,"3660 nM [falling, full curve]","651 nM [falling, full curve, poor fit]"
CCN1/C(=C/c2ccc3cc(C)ccc3[n+]2CC)Sc2cc(C)c(C)cc21,-103%,"651 nM [falling, full curve, poor fit]","1840 nM [falling, full curve]"
Cc1cccc(NC(=O)c2ccc3c(Cl)c4c(nc3c2)CCCC4)n1,-19%,–,–
CCC(C)c1ccccc1NC(=O)Cc1coc2cc3c(cc12)CCC3 (stereo not given),10.8%,"651 nM [falling, full curve, poor fit]",–
CCn1c(CSc2nc3ccccc3n2C)nc2ccccc21,-20.3%,–,–
CC(=O)Nc1cccc(C(=O)N2CCC(n3nccc3NC(=O)CC(C)C)CC2)c1,15%,–,–
CCC(C(=O)NCCCN1CCCC1=O)n1c2ccccc2c2nc(=O)cc(C)n21 (stereo not given),-9.14%,"29100 nM [falling, single point]",–
O=C(NCCc1ccc(Cl)cc1)c1cccnc1,43.2%,"2910 nM [rising, partial curve]","2910 nM [rising, partial curve]"
COc1ccc2nc(N3C(=O)C(O)=C(C(=O)c4ccco4)C3c3ccc(C)o3)sc2c1 (stereo not given),-96.8%,"2910 nM [falling, partial curve]","29100 nM [falling, single point]"
CCOc1ccc(NS(=O)(=O)c2ccc(C(=O)NCc3ccccn3)cc2)cc1,-1.04%,"1840 nM [rising, partial curve]",–
COc1ccc(/C=C/C(=O)Nc2cccc(N3CCOCC3)c2)cc1OC,-32.4%,"29100 nM [falling, single point]","29100 nM [falling, single point]"
Cc1c(/C=N\NC(=O)C2COc3ccc(C(C)(C)C)cc3O2)c2ccccc2n1C (stereo not given),12.9%,"184 nM [rising, full curve, poor fit]",–
CC(=O)N1c2ccccc2C(C)(C)C2CCC(C)CC21 (stereo not given),-40.6%,"29100 nM [falling, single point]","18400 nM [falling, single point]"
O=C(CN1CCN(Cc2ccccc2)CC1)N1CCCCCC1,17.1%,–,"4110 nM [rising, single point]"
CCC(NC(=O)NCCCn1ccnc1)(C(F)(F)F)C(F)(F)F,2.52%,"6.51 nM [rising, full curve, poor fit]",–

# In the list so far, 2 contain bromine:
SMILES,cell number change,AC50 [1],AC50 [2]
O=C(/C=C/Nc1ccc(F)cc1Br)c1ccccc1,15.1%,"6510 nM [rising, single point]",–
Brc1ccc(-c2nnc(-c3cccc(Br)c3)o2)cc1,-26.2%,–,"4.61 nM [falling, full curve, poor fit]"
